The values below come from paper PMC6158883.

Protein sequences, listed by entry. Tags and fused reporters are not part of them. Residues count along the entry.
UniProt P06733: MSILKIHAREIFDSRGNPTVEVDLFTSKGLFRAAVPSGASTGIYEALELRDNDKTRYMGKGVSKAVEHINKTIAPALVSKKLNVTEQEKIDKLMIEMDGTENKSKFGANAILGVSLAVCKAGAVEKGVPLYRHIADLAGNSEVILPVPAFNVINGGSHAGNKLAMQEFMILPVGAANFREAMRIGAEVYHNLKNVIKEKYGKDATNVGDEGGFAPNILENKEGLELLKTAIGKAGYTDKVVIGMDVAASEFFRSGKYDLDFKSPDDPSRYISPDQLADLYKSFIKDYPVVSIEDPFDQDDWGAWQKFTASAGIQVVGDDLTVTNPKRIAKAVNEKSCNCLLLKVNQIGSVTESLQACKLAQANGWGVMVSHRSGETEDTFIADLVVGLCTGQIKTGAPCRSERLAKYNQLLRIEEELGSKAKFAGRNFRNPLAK
UniProt P04792: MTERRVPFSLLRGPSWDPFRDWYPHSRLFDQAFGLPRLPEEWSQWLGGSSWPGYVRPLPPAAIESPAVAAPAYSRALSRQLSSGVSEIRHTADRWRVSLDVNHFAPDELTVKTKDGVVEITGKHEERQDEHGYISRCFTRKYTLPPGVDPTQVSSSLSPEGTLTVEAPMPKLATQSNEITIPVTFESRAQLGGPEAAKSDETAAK
UniProt P11142: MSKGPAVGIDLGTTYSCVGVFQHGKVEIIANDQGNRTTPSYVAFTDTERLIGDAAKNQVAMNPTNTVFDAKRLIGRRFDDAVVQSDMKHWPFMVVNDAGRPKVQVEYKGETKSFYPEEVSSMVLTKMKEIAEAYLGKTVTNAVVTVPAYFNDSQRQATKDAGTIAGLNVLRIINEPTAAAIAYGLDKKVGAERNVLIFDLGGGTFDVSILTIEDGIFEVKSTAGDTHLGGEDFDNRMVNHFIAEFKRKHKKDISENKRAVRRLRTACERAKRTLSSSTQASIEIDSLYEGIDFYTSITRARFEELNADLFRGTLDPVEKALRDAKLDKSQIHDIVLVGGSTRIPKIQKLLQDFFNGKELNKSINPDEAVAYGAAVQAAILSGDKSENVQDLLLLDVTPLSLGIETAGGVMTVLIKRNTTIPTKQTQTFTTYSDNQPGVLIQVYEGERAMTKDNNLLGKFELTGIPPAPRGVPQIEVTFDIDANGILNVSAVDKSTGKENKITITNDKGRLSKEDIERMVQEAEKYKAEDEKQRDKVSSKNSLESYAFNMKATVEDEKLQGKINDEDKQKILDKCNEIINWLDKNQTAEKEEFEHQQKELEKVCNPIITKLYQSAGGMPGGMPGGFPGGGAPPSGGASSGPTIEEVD
UniProt P04818: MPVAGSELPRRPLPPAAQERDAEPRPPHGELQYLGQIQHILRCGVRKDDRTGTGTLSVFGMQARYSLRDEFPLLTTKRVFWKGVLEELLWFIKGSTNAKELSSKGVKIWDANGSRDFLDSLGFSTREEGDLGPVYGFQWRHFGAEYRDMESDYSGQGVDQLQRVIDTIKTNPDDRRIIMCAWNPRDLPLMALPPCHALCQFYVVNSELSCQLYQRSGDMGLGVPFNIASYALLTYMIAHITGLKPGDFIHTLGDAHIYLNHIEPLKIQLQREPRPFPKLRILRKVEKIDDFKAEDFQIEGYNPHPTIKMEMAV
UniProt P15311: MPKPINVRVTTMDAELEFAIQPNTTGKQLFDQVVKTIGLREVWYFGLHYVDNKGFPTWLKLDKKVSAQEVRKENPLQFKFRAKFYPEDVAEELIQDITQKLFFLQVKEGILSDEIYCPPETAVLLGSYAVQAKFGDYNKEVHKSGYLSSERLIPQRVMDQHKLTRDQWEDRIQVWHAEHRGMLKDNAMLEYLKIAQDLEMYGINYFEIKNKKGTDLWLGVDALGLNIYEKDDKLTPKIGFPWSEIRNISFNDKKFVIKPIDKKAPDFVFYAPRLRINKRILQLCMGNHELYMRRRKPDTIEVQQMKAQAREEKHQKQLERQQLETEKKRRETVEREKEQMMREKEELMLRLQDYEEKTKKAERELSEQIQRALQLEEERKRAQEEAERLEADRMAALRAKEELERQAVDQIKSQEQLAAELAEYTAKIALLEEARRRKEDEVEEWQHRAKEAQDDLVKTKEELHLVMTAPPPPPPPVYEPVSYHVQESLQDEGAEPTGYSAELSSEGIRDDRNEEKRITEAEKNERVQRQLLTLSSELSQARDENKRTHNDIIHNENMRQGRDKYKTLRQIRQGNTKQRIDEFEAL
UniProt O60506: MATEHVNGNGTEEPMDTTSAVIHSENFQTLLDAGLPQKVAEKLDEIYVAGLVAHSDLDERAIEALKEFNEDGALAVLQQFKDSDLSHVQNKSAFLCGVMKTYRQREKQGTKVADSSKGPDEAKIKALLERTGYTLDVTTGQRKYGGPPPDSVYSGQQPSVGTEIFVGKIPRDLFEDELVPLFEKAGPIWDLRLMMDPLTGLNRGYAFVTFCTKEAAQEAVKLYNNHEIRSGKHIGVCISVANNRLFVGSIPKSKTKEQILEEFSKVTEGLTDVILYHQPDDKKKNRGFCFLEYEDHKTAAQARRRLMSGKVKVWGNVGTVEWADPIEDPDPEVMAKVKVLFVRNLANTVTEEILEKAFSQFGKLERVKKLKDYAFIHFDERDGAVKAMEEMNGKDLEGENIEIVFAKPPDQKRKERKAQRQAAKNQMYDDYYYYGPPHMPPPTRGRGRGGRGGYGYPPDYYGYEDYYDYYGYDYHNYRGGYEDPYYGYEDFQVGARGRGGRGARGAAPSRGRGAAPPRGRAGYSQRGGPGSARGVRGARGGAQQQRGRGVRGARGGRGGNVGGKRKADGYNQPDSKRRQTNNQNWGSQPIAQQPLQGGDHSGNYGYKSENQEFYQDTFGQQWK
UniProt Q12905: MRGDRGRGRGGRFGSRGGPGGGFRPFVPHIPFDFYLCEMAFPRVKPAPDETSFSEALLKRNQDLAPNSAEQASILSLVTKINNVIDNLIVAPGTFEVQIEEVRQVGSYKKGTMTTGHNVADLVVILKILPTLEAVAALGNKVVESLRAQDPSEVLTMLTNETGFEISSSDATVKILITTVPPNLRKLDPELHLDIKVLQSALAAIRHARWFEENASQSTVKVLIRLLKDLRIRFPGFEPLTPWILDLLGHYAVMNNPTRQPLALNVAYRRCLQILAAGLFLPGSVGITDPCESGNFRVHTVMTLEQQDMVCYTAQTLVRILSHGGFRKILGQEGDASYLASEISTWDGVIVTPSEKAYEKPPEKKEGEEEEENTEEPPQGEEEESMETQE
UniProt O00571: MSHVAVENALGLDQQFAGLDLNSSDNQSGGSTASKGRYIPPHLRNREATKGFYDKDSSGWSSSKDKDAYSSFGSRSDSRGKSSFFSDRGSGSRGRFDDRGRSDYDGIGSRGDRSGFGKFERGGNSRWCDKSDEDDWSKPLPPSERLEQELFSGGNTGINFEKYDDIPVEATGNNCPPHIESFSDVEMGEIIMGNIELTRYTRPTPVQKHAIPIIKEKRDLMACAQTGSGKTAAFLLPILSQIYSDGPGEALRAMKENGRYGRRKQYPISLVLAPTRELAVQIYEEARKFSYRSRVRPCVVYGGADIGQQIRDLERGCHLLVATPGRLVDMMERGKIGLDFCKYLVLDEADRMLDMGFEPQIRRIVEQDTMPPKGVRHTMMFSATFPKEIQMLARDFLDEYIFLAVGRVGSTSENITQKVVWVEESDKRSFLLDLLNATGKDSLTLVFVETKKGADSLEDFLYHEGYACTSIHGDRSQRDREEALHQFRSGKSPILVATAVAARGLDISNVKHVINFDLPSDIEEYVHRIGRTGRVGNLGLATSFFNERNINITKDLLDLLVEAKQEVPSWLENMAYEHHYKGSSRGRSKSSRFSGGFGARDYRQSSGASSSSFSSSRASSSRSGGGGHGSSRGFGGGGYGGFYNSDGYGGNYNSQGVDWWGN
UniProt Q15393: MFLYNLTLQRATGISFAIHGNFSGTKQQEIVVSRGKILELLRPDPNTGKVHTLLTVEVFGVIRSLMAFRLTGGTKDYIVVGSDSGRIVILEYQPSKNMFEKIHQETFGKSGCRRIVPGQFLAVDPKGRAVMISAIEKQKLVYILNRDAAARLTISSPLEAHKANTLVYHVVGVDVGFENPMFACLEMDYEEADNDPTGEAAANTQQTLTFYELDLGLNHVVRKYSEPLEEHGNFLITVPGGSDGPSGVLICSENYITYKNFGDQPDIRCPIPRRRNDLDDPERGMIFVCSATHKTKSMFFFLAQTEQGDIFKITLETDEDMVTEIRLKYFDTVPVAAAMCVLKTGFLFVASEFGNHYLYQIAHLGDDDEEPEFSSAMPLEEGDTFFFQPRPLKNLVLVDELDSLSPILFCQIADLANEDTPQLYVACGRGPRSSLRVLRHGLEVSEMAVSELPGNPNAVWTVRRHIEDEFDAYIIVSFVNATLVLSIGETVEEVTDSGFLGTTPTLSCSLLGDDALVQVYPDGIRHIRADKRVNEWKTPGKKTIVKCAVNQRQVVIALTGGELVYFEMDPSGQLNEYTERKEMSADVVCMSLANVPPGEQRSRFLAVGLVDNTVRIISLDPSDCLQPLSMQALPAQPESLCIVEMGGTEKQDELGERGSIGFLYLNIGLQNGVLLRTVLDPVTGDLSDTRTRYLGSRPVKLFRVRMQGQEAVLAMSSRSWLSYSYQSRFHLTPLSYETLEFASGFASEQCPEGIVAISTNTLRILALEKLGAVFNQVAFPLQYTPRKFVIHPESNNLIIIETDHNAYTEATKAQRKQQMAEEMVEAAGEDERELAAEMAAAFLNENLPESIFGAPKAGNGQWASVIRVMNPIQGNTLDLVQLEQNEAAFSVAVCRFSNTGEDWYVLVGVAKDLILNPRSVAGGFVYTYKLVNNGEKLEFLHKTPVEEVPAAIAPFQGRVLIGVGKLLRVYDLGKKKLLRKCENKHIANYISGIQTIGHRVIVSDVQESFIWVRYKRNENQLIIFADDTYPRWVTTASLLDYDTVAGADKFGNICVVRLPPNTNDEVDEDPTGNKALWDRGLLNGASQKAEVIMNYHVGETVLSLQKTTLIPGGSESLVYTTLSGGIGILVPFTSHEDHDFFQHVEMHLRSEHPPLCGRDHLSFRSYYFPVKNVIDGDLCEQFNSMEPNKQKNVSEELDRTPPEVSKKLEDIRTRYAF
UniProt P06748: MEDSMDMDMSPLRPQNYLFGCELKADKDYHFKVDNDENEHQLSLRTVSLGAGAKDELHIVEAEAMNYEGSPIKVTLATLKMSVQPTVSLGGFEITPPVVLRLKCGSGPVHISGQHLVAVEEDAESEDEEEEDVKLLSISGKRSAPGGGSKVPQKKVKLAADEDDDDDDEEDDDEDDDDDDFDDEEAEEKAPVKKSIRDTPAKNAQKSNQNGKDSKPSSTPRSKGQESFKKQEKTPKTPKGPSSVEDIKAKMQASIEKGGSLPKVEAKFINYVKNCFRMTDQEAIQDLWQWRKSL
UniProt P00374: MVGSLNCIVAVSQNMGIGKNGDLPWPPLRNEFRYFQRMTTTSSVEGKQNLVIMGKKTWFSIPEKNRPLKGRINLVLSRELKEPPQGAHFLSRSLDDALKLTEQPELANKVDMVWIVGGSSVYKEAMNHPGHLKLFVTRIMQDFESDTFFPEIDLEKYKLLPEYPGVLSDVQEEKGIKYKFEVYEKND
UniProt P10809, residues 27-573: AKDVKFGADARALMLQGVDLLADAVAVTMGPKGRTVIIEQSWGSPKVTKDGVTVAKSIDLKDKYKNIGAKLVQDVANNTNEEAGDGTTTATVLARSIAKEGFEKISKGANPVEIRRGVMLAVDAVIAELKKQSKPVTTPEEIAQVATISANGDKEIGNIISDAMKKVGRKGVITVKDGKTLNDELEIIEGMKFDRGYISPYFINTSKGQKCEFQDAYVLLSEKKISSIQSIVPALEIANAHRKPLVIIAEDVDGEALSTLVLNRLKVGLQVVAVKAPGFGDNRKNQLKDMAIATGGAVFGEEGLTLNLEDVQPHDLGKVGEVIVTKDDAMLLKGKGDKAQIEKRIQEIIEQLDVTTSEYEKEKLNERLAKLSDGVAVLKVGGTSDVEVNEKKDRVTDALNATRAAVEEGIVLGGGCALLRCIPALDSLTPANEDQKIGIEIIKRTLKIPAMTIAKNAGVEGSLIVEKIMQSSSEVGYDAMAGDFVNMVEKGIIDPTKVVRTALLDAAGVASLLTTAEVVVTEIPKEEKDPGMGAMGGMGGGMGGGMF

No constants are given. Whether binding was seen depends on the method and setting. In cells and extracts the contact can be indirect. These calls come from enrichment with a bait or labelling near it, and not all partners need be listed. No binding means not detected with the bait.

First the molecules themselves.
T1: Methylenetetrahydrofolate dehydrogenase (NADP+ dependent) 2 (human (endogenous in HCT-116)) (UniProt P13995)
T1 sequence: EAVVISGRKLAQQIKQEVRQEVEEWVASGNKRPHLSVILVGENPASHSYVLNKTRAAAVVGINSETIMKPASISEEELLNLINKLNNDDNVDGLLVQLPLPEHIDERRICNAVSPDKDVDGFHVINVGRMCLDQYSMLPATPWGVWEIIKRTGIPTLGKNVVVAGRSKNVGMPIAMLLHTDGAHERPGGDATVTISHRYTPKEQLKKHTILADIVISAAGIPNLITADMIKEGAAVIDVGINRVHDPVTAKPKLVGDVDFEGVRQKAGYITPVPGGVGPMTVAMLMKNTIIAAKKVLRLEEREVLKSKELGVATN

B1: SHMT1 (enzyme, UniProt P34896 1-483)
chain: MTMPVNGAHKDADLWSSHDKMLAQPLKDSDVEVYNIIKKESNRQRVGLELIASENFASRAVLEALGSCLNNKYSEGYPGQRYYGGTEFIDELETLCQKRALQAYKLDPQCWGVNVQPYSGSPANFAVYTALVEPHGRIMGLDLPDGGHLTHGFMTDKKKISATSIFFESMPYKVNPDTGYINYDQLEENARLFHPKLIIAGTSCYSRNLEYARLRKIADENGAYLMADMAHISGLVAAGVVPSPFEHCHVVTTTTHKTLRGCRAGMIFYRKGVKSVDPKTGKEILYNLESLINSAVFPGLQGGPHNHAIAGVAVALKQAMTLEFKVYQHQVVANCRALSEALTELGYKIVTGGSDNHLILVDLRSKGTDGGRAEKVLEACSIACNKNTCPGDRSALRPSGLRLGTPALTSRGLLEKDFQKVAHFIHRGIELTLQIQSDTGVRATLKEFKERLAGDKYQAAVQALREEVESFASLFPLPGLPDF
B2: SHMT2 (enzyme, UniProt P34897 30-504)
chain: NAAQTQTGEANRGWTGQESLSDSDPEMWELLQREKDRQCRGLELIASENFCSRAALEALGSCLNNKYSEGYPGKRYYGGAEVVDEIELLCQRRALEAFDLDPAQWGVNVQPYSGSPANLAVYTALLQPHDRIMGLDLPDGGHLTHGYMSDVKRISATSIFFESMPYKLNPKTGLIDYNQLALTARLFRPRLIIAGTSAYARLIDYARMREVCDEVKAHLLADMAHISGLVAAKVIPSPFKHADIVTTTTHKTLRGARSGLIFYRKGVKAVDPKTGREIPYTFEDRINFAVFPSLQGGPHNHAIAAVAVALKQACTPMFREYSLQVLKNARAMADALLERGYSLVSGGTDNHLVLVDLRPKGLDGARAERVLELVSITANKNTCPGDRSAITPGGLRLGAPALTSRQFREDDFRRVVDFIDEGVNIGLEVKSKTAKLQDFKSFLLKDSETSQRLANLRQRVEQFARAFPMPGFDEH
B3: Dolichyl-diphosphooligosaccharide--protein glycosyltransferase subunit 1 (protein, UniProt P04843 24-607)
chain: ASSEAPPLINEDVKRTVDLSSHLAKVTAEVVLAHLGGGSTSRATSFLLALEPELEARLAHLGVQVKGEDEEENNLEVRETKIKGKSGRFFTVKLPVALDPGAKISVIVETVYTHVLHPYPTQITQSEKQFVVFEGNHYFYSPYPTKTQTMRVKLASRNVESYTKLGNPTRSEDLLDYGPFRDVPAYSQDTFKVHYENNSPFLTITSMTRVIEVSHWGNIAVEENVDLKHTGAVLKGPFSRYDYQRQPDSGISSIRSFKTILPAAAQDVYYRDEIGNVSTSHLLILDDSVEMEIRPRFPLFGGWKTHYIVGYNLPSYEYLYNLGDQYALKMRFVDHVFDEQVIDSLTVKIILPEGAKNIEIDSPYEISRAPDELHYTYLDTFGRPVIVAYKKNLVEQHIQDIVVHYTFNKVLMLQEPLLVVAAFYILFFTVIIYVRLDFSITKDPAAEARMKVACITEQVLTLVNKRIGLYRHFDETVNRYKQSRDISTLNSGKKSLETEHKALTSEIALLQSRLKTEGSDLCDRVSEMQKLDAQVKELVLKSAVEAERLVAGKLKKDTYIENEKLISGKRQELVTKIDHILDAL
B4: Nuclear fragile X mental retardation-interacting protein 2 (protein, UniProt Q7Z417 1-695)
chain: MEEKPGQPQPQHHHSHHHPHHHPQQQQQQPHHHHHYYFYNHSHNHHHHHHHQQPHQYLQHGAEGSPKAQPKPLKHEQKHTLQQHQETPKKKTGYGELNGNAGEREISLKNLSSDEATNPISRVLNGNQQVVDTSLKQTVKANTFGKAGIKTKNFIQKNSMDKKNGKSYENKSGENQSVDKSDTIPIPNGVVTNNSGYITNGYMGKGADNDGSGSESGYTTPKKRKARRNSAKGCENLNIVQDKIMQQETSVPTLKQGLETFKPDYSEQKGNRVDGSKPIWKYETGPGGTSRGKPAVGDMLRKSSDSKPGVSSKKFDDRPKGKHASAVASKEDSWTLFKPPPVFPVDNSSAKIVPKISYASKVKENLNKTIQNSSVSPTSSSSSSSSTGETQTQSSSRLSQVPMSALKSVTSANFSNGPVLAGTDGNVYPPGGQPLLTTAANTLTPISSGTDSVLQDMSLTSAAVEQIKTSLFIYPSNMQTMLLSTAQVDLPSQTDQQNLGDIFQNQWGLSFINEPSAGPETVTGKSSEHKVMEVTFQGEYPATLVSQGAEIIPSGTEHPVFPKAYELEKRTSPQVLGSILKSGTTSESGALSLEPSHIGDLQKADTSSQGALVFLSKDYEIESQNPLASPTNTLLGSAKEQRYQRGLERNDSWGSFDLRAAIVYHTKEMESIWNLQKQDPKRIITYNEAMDSPDQ
B5: Heterogeneous nuclear ribonucleoprotein M (protein, UniProt P52272 1-730)
chain: MAAGVEAAAEVAATEIKMEEESGAPGVPSGNGAPGPKGEGERPAQNEKRKEKNIKRGGNRFEPYANPTKRYRAFITNIPFDVKWQSLKDLVKEKVGEVTYVELLMDAEGKSRGCAVVEFKMEESMKKAAEVLNKHSLSGRPLKVKEDPDGEHARRAMQKVMATTGGMGMGPGGPGMITIPPSILNNPNIPNEIIHALQAGRLGSTVFVANLDYKVGWKKLKEVFSMAGVVVRADILEDKDGKSRGIGTVTFEQSIEAVQAISMFNGQLLFDRPMHVKMDERALPKGDFFPPERPQQLPHGLGGIGMGLGPGGQPIDANHLNKGIGMGNIGPAGMGMEGIGFGINKMGGMEGPFGGGMENMGRFGSGMNMGRINEILSNALKRGEIIAKQGGGGGGGSVPGIERMGPGIDRLGGAGMERMGAGLGHGMDRVGSEIERMGLVMDRMGSVERMGSGIERMGPLGLDHMASSIERMGQTMERIGSGVERMGAGMGFGLERMAAPIDRVGQTIERMGSGVERMGPAIERMGLSMERMVPAGMGAGLERMGPVMDRMATGLERMGANNLERMGLERMGANSLERMGLERMGANSLERMGPAMGPALGAGIERMGLAMGGGGGASFDRAIEMERGNFGGSFAGSFGGAGGHAPGVARKACQIFVRNLPFDFTWKMLKDKFNECGHVLYADIKMENGKSKGCGVVKFESPEVAERACRMMNGMKLSGREIDVRIDRNA
B6: Heterogeneous nuclear ribonucleoprotein R (protein, UniProt O43390 1-633)
chain: MANQVNGNAVQLKEEEEPMDTSSVTHTEHYKTLIEAGLPQKVAERLDEIFQTGLVAYVDLDERAIDALREFNEEGALSVLQQFKESDLSHVQNKSAFLCGVMKTYRQREKQGSKVQESTKGPDEAKIKALLERTGYTLDVTTGQRKYGGPPPDSVYSGVQPGIGTEVFVGKIPRDLYEDELVPLFEKAGPIWDLRLMMDPLSGQNRGYAFITFCGKEAAQEAVKLCDSYEIRPGKHLGVCISVANNRLFVGSIPKNKTKENILEEFSKVTEGLVDVILYHQPDDKKKNRGFCFLEYEDHKSAAQARRRLMSGKVKVWGNVVTVEWADPVEEPDPEVMAKVKVLFVRNLATTVTEEILEKSFSEFGKLERVKKLKDYAFVHFEDRGAAVKAMDEMNGKEIEGEEIEIVLAKPPDKKRKERQAARQASRSTAYEDYYYHPPPRMPPPIRGRGRGGGRGGYGYPPDYYGYEDYYDDYYGYDYHDYRGGYEDPYYGYDDGYAVRGRGGGRGGRGAPPPPRGRGAPPPRGRAGYSQRGAPLGPPRGSRGGRGGPAQQQRGRGSRGSRGNRGGNVGGKRKADGYNQPDSKRRQTNNQQNWGSQPIAQQPLQQGGDYSGNYGYNNDNQEFYQDTYGQQWK

In this test the target is T1, Methylenetetrahydrofolate dehydrogenase (NADP+ dependent) 2 (human (endogenous in HCT-116)). The test is described as follows: affinity purification with mass spectrometry; co-IP of endogenous MTHFD2 from HCT-116 WT lysate (1 or 2 mg, Pierce IP lysis buffer) with two anti-MTHFD2 antibodies (AP, NC) on Dynabeads Protein A, 4 °C, 2 h, no cross-linkage; controls: MTHFD2 knockout (D2-KO) cells and IgG; SDS gel, in-gel digestion, LC-MS/MS.
Take “Alpha-enolase (from UniProt P06733 1-434) (enzyme)”: the binding result is on record as “binds”.

Consider “Stress-70 protein, mitochondrial (from UniProt P38646 47-679)”, for which the binding result is listed as “binds”. Turning to “Heat shock protein beta-1 (from UniProt P04792 1-205)”, the binding result was “binds”. “Heat shock cognate 71 kDa protein (from UniProt P11142 1-646)”: the binding result is listed as “binds”. In the case of “Heterogeneous nuclear ribonucleoprotein K (from UniProt P61978 1-463)”, the binding result is recorded as “binds”. For the molecule “X-ray repair cross-complementing protein 6 (from UniProt P12956 1-609)”, the binding result is recorded as “binds”.

With “TYMS (from UniProt P04818 1-313) (enzyme)”, the binding result is recorded as “no binding”. For Ezrin (from UniProt P15311 1-586) the value was “binds”. Consider “Heterogeneous nuclear ribonucleoprotein Q (from UniProt O60506 1-623)”, for which the binding entry is on record as “binds”. For “Replication protein A 70 kDa DNA-binding subunit (from UniProt P27694 1-616)”, the binding result is on record as “binds”. With “Interleukin enhancer-binding factor 2 (from UniProt Q12905 1-390)” the entry was “binds”; with “ATP-dependent RNA helicase DDX3X (from UniProt O00571 1-662)”, “binds”; with “Splicing factor 3B subunit 3 (from UniProt Q15393 1-1217)”, “binds”. For “Nucleophosmin (from UniProt P06748 1-294)” the value was “binds”. Take “MTHFD1 (from UniProt P11586 1-935) (enzyme)”: the binding entry is “no binding”. On to “nuclear lamin (human (endogenous in HCT-116))”, for which the binding entry is “no binding”. Turning to “DHFR (from UniProt P00374 1-187) (enzyme)”, the binding result is “no binding”.

Regarding “60 kDa heat shock protein (from UniProt P10809 27-573)”, the binding entry is “binds”.

Regarding B1, the binding result is listed as “no binding”. For the molecule B2, the binding entry is reported as “no binding”.

On to B3, for which the binding entry was “binds”. In the case of B4, the binding entry is reported as “binds”.

As to B5, the binding entry is listed as “binds”. On to B6, for which the binding result is on record as “binds”.
